Residue numbers refer to the chain shown, from its start. In names and notes the source's numbering stands. No constants are given. Whether binding was seen depends on the method and setting. In cells and extracts the contact can be indirect. Some results given as binding are weak or reduced against the parent protein; the word gives no strength. For some assays here: Sequences can lack the tags named with a protein. Each block holds one binder with its values, some of them ahead of it.
Legend:
[1] = biological target: staphylococcal nuclease and tudor domain containing 1 (SND1), endogenous in human liver cancer cells (human (endogenous in Huh7 and HepG2)) (UniProt Q7KZF4); experiment: co-IP; AEG-1-WT or AEG-1-MT expressed in Huh7 cells; coprecipitation with SND1, quantified, normalised to AEG-1-WT
[2] = biological target: T1, palmitoyl-transferase zDHHC6, HA-tagged (UniProt Q9H6R6); experiment: co-IP; Myc-tagged AEG-1 and HA-tagged zDHHC6 co-expressed in HEK293T cells; RIPA lysates, protein A/G magnetic beads, western blotting
T1 sequence: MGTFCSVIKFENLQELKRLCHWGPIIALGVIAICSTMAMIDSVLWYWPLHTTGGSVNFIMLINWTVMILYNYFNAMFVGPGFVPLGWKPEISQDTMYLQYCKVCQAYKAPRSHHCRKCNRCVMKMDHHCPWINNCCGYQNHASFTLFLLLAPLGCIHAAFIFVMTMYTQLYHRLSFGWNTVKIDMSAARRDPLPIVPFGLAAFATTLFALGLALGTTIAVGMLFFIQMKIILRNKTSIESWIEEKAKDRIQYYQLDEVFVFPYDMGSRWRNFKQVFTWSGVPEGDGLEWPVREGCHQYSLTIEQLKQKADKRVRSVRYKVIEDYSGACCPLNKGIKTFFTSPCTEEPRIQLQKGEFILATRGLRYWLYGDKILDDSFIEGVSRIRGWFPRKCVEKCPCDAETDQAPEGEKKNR

Protein sequences, listed by entry. Tags and fused reporters are not part of them.
UniProt Q7KZF4: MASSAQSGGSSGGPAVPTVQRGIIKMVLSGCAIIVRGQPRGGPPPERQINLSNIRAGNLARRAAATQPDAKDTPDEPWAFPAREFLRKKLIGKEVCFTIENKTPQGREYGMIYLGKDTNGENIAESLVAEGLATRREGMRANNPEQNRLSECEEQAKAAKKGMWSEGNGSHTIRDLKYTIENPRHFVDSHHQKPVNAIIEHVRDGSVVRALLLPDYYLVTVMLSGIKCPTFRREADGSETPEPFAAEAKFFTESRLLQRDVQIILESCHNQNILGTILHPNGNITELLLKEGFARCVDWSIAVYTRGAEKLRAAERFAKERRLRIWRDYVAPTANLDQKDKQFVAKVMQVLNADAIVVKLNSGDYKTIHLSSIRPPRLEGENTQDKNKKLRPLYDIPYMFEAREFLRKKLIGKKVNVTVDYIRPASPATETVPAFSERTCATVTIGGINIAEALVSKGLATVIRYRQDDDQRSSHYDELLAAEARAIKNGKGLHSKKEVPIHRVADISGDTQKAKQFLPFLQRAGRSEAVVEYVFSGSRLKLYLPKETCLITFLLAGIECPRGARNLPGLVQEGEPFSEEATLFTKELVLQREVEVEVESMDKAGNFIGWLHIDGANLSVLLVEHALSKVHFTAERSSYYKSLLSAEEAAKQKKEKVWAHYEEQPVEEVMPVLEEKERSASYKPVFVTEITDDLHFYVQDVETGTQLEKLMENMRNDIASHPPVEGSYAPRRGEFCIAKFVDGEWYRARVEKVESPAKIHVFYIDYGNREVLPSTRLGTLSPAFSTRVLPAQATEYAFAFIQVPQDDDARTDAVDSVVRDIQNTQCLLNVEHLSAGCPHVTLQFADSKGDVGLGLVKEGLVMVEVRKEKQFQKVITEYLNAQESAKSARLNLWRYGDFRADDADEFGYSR
UniProt Q969H0: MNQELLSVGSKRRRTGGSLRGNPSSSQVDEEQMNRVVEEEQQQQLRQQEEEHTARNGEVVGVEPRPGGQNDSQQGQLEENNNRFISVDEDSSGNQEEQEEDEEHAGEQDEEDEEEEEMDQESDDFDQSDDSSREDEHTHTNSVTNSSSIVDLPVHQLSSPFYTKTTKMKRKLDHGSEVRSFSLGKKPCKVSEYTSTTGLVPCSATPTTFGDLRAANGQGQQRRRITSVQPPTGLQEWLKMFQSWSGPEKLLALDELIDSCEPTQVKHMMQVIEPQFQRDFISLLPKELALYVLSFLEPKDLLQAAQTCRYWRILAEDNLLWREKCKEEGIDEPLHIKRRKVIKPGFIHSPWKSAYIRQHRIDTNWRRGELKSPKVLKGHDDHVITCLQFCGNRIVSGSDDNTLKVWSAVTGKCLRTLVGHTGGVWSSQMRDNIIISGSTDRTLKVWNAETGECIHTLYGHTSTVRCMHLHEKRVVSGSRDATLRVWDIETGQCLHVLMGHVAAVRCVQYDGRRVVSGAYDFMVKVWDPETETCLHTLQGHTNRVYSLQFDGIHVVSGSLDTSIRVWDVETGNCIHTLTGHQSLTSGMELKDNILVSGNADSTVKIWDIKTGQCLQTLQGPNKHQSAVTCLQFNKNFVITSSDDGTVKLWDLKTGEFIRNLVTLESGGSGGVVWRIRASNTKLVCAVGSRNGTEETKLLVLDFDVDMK

[3] = biological target: staphylococcal nuclease and tudor domain containing 1 (SND1), endogenous in human liver cancer cells (human (endogenous in Huh7 and HepG2)) (UniProt Q7KZF4); experiment: co-IP; Huh7 or HepG2 cells expressing AEG-1-Myc, treated with 1x PBS or HCQ; normalised to PBS treatment
FBXW7, Flag-tagged = FBXW7, Flag-tagged (UniProt Q969H0); experiment: co-IP; FBXW7 co-expressed with AEG-1-WT or AEG-1-MT; immunoprecipitation and western blotting, quantified, normalised to AEG-1-WT; cell line not stated in the legend
[4] = biological target: T2, SND1, endogenous in mouse liver (mouse (endogenous in liver)) (UniProt Q78PY7); experiment: co-IP; livers of WT, AEG-1^C75A and Zdhhc6-/- mice; association of AEG-1 with SND1, western blotting, quantified, normalised to WT
T2 sequence: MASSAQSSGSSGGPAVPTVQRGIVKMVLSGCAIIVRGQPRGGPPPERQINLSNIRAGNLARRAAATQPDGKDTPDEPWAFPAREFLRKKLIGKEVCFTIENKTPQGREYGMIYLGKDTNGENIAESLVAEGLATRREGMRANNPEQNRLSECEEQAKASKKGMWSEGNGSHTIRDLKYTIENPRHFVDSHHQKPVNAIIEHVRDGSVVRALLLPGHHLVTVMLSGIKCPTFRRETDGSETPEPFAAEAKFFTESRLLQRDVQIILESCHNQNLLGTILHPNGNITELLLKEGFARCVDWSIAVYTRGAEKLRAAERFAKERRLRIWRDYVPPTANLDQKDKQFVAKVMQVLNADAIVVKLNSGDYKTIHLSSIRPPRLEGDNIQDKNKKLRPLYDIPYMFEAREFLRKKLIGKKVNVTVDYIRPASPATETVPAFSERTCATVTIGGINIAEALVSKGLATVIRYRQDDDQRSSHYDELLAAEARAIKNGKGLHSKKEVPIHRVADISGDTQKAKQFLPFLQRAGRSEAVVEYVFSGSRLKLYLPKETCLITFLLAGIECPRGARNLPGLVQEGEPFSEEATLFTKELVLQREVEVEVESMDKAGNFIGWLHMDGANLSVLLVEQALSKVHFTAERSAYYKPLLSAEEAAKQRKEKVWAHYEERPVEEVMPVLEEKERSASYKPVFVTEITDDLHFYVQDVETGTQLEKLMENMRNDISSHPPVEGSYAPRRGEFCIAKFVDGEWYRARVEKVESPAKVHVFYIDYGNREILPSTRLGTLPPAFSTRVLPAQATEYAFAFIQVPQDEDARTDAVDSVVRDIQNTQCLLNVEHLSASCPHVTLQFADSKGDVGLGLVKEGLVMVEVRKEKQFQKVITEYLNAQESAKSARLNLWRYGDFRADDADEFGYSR

[5] = biological target: T3, wildtype AEG-1 (Astrocyte-elevated gene-1), Myc-tagged (human) (UniProt Q86UE4); experiment: co-IP; interaction of AEG-1 with PPT1 or PPT2 by co-IP and western blotting; cell line and tags not stated in the legend
T3 sequence (chain, Cys-75 palmitoylated in cells (mono-palmitoylated by APEGS assay)): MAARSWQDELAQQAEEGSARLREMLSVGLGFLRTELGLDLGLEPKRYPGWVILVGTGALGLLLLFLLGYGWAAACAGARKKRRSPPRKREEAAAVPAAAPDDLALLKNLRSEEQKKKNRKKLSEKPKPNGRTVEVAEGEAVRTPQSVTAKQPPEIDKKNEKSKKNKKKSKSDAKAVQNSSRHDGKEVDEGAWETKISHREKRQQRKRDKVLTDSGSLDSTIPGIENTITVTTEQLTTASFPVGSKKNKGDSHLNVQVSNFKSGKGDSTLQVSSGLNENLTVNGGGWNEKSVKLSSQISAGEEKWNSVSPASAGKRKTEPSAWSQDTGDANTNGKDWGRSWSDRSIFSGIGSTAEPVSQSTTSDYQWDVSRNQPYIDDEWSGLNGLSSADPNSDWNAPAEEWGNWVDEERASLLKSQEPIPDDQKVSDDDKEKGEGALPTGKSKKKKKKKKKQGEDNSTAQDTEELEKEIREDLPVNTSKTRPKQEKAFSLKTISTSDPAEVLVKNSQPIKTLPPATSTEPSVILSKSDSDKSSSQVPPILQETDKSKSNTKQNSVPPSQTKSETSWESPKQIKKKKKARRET

binding [1]: binds
binding [2]: binds
binding [3]: binds
binding (FBXW7, Flag-tagged): binds
B1: wildtype AEG-1 (Astrocyte-elevated gene-1), Myc-tagged (protein, UniProt Q86UE4 1-582)
chain: T3 sequence (chain, Cys-75 palmitoylated in cells (mono-palmitoylated by APEGS assay))
modifications: Cys-75 palmitoylated in cells (mono-palmitoylated by APEGS assay)

binding [1]: binds
binding (FBXW7, Flag-tagged): binds weakly
B2: mutant AEG-1 (cysteine at position 75 mutated to alanine), Myc-tagged (protein, UniProt Q86UE4 1-582)
chain: T3 sequence (chain, Cys-75 palmitoylated in cells (mono-palmitoylated by APEGS assay)) with C75A

binding [4]: binds
B3: AEG-1 C75A, endogenous in liver of AEG-1^C75A knock-in mice (protein, UniProt Q80WJ7 1-579)
chain: MAARSWQDELAQQAEEGSARLRELLSVGLGFLRTELGLDLGLEPKRYPGWVILVGTGALGLLLLFLLGYGWAAAAAGARKKRRSPPRKREEAAPPTPAPDDLAQLKNLRSEEQKKKNRKKLPEKPKPNGRTVEVPEDEVVRNPRSITAKQAPETDKKNEKSKKNKKKSKSDAKAVQNSSRHDGKEVDEGAWETKISHREKRQQRKRDKVLTDSGSLDSTIPGIENIITVTTEQLTTASFPVGSKKNKGDSHLNVQVSNFKSGKGDSTLQVSSRLNENLTVNGGGWSEKSVKLSSQLSEEKWNSVPPASAGKRKTEPSAWTQDTGDTNANGKDWGRNWSDRSIFSGIGSTAEPVSQSTTSDYQWDVSRNQPYIDDEWSGLNGLSSADPSSDWNAPAEEWGNWVDEDRASLLKSQEPISNDQKVSDDDKEKGEGALPTGKSKKKKKKKKKQGEDNSHTQDTEDLEKDTREELPVNTSKARPKQEKACSLKTMSTSDPAEVLIKNSQPVKTLPPAISAEPSITLSKGDSDNSSSQVPPMLQDTDKPKSNAKQNSVPPSQTKSETNWESPKQIKKKKKARRET

binding [5]: binds
B4: depalmitoylating enzyme PPT2, Flag-tagged (enzyme, UniProt Q9UMR5 28-302)
chain: APAPHRASYKPVIVVHGLFDSSYSFRHLLEYINETHPGTVVTVLDLFDGRESLRPLWEQVQGFREAVVPIMAKAPQGVHLICYSQGGLVCRALLSVMDDHNVDSFISLSSPQMGQYGDTDYLKWLFPTSMRSNLYRICYSPWGQEFSICNYWHDPHHDDLYLNASSFLALINGERDHPNATVWRKNFLRVGHLVLIGGPDDGVITPWQSSFFGFYDANETVLEMEEQLVYLRDSFGLKTLLARGAIVRCPMAGISHTAWHSNRTLYETCIEPWLS
